# In all, about 3,000 compounds went through this assay and about 45 (2%) showed an effect of 50% or more. This is one part of the list.
# Tested on: MOLM1 and UCSD/AML1 (averaged)
# Experiment: cell viability relative to DMSO control (POC); higher = less growth inhibition
# Details: 1 µM; 72 h
# Method: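 Primary viability screen in the 3q26 EVI1-high AML cell lines MOLM1 and UCSD/AML1, compounds at 1 uM for 72 h. ATP CellTiter-Glo read-out given as percent viable over DMSO control (POC), averaged over duplicates. This mapping covers the TimTec NDL-3000 natural derivative library, whose compounds are identified by TimTec catalogue codes (ST...).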
row,Compound,cell viability
1,Cc1[nH]c2c(Cl)c(Cl)ccc2c1CCNC(=O)Cn1nc(-c2ccc(Cl)cc2)c2ccccc2c1=O,105%
2,COC(=O)CNC(=O)c1ccc(OC)c(OC)c1,103%
3,CC(C)(C)c1ccc(OCCSc2nc3ncnc(N)c3[nH]2)cc1,97.9%
4,CCCOc1ccc(/C=C2\Oc3ccc(C(=O)OC)cc3C2=O)cc1OCC,106%
5,COc1ccc2c(c1)c(CC(=O)Nc1c(C)n(C)n(-c3ccccc3)c1=O)c(C)n2C(=O)c1ccc(Cl)cc1,97.1%
6,COc1cc(/C=C(/C#N)c2nc3ccccc3s2)cc(OC)c1O,92.5%
7,CCOC(=O)CC[C@@H](C)[C@H]1CC[C@H]2[C@@H]3[C@H](O)C[C@@H]4C[C@H](O)CC[C@]4(C)[C@H]3C[C@H](O)[C@]12C,93.1%
8,Cc1[nH]c2ccccc2c1CCNC(=O)c1cc(F)c(F)cc1Cl,105%
9,O=c1[nH]c(=O)n(CCOc2ccc(Cl)cc2)cc1Br,93.2%
10,Cc1ccc2c(=O)c(O)c(-c3ccc(OCc4ccccc4)cc3)oc2c1,112%
11,Cc1ccc(C)c(NC(=O)Cn2c(=O)cc(C(=O)NCc3ccccc3)c3ccccc32)c1,93.9%
12,N#CC1=C(N)Oc2c(oc(CO)cc2=O)C1c1ccc2ccccc2c1 (centres undefined),99.5%
13,Cc1[nH]c2ccccc2c1CCNC(=O)/C(=C/c1ccco1)NC(=O)c1ccc(C(C)(C)C)cc1,89.9%
14,Cc1[nH]c2ccccc2c1CCNC(=O)COc1ccc(F)cc1F,102%
15,Cc1cccc(C(=O)/C=C2/c3ccc4ccccc4c3CC(C)(C)N2C)c1,103%
16,O=C(O)CC[C@H](NC(=O)c1ccccc1)C(=O)O,114%
17,Nc1c(C(=O)N2CCc3ccccc3C2)sc2nc(-c3cccnc3)cc(C(F)(F)F)c12,108%
18,COc1cc(-c2nc3c(n2O)C(=O)CC(C)(C)C3)cc(OC)c1OC,94.8%
19,COC(=O)C1=C(N)Oc2c(oc(CO)cc2=O)C1c1cccnc1 (centres undefined),111%
20,Cc1ccc(-n2c(SCC(=O)Nc3ccc4c(c3)OCO4)nc3c(=O)[nH]cnc32)cc1,92.4%
21,O=C(Cn1c(=O)cc(C(=O)N2CCOCC2)c2ccccc21)Nc1cccc(Br)c1,92.7%
22,O=C(O)CNC(=O)c1ccc(F)cc1,103%
23,COc1c2c(c(COc3ccc4c(c3)OCO4)c(OC)c1OC)C(=O)OC2,103%
24,O=C(O)/C=C/c1ccc(F)c(Br)c1,105%
25,COc1ccc(C(=S)N2CCCCC2)cc1OC(=O)c1cc(OC)c(OC)c(OC)c1,107%
26,CCOC(=O)c1ccc2nc3c(=O)[nH]c(=O)nc-3n(CCc3ccc(OC)c(OC)c3)c2c1,99.7%

row,Compound,cell viability
1,COc1cc(C)cc2oc(=O)c(CC(=O)NCc3ccc(F)cc3)c(C)c12,103%
2,COc1cc(OC)cc(C(=O)N2CCCc3cccc(OC)c32)c1,95.2%
3,CC(C)CCOC(=O)COc1ccc2c(=O)c(Oc3ccc(C(C)(C)C)cc3)coc2c1,85.3%
4,COC(=O)c1ccc2c(c1)C(=O)/C(=C\c1ccc(OC)cc1)O2,101%
5,COc1ccc2oc(=O)cc(CN3CCN(C(=O)c4ccc(Br)cc4)CC3)c2c1,93.4%
6,CC(=O)c1c(C)nc2ccccc2c1C(=O)O,91.9%
7,Cc1ncc(CO)c(C)c1O,104%
8,O=C(CSc1nc2ccccc2c(=O)[nH]1)Nc1ccc2c(c1)OCO2,102%
9,COc1cc(C2C3=C(CC(C)(C)CC3=O)Nc3[nH]c(=O)[nH]c(=O)c32)cc(OC)c1OC (centres undefined),101%
10,Nc1nc(N)c2c(Cl)cccc2n1,99.3%
11,CCc1cccc(C)c1Nc1ncnc2ccc(Br)cc12,88.2%
12,COc1ccc(NC(=O)/C=C/c2ccc(OC)c(OC)c2)cc1,95.3%
13,Cn1c(SCC(=O)Nc2ccc(F)c(Cl)c2)nc2c(=O)[nH]cnc21,115%
14,CCOc1ccccc1C1C2CCCCC2(O)CCN1C(=O)c1cc(OCC)c(OCC)c(OCC)c1 (centres undefined),87%
15,COc1ccc(C(=O)NCCc2c(C)[nH]c3ccc(OCc4ccccc4)cc23)cc1OC,108%
16,COc1ccc(C(=O)Cn2nc(-c3ccccc3)oc2=O)cc1OC,104%
17,CCc1ccc(NC(=O)CSc2nc3c(=O)[nH]cnc3n2-c2ccc(C)cc2)cc1,101%
18,COC(=O)Cn1cnc2c1c(=O)[nH]c(=O)n2C,106%
19,O=C(Cn1c(=O)cc(C(=O)N2CCCCC2)c2ccccc21)Nc1cccc(Cl)c1,92.1%
20,Nc1ccc(-c2c3ccc(=O)cc-3oc3cc(O)ccc23)c(C(=O)O)c1,99.4%
21,CN(C)c1ccc(/C=N/NC(=O)Cc2n[nH]c(=O)[nH]c2=O)cc1,105%
22,CC(Cl)COC(=O)/C=C/c1ccc([N+](=O)[O-])cc1 (centres undefined),108%
23,O=C(Cn1c(=O)cc(C(=O)N2CCOCC2)c2ccccc21)Nc1ccc(F)c(Cl)c1,89.6%
24,COc1cc(C=O)ccc1OCC(N)=O,100%
25,Cn1ncc([N+](=O)[O-])c1C(=O)NC(CO)C(O)c1ccc([N+](=O)[O-])cc1 (centres undefined),96.6%
26,O=C1NCCc2c1[nH]c1ccccc21,111%

row,Compound,cell viability
1,COCCOC(=O)c1c(C)n(-c2cccc(C)c2)c2c1cc(O)c1ccccc12,108%
2,COc1ccc(C(=O)NCC(=O)O)cc1,105%
3,CC1CCN(S(=O)(=O)c2ccc(NC(=O)CN3CCc4ccccc4C3)cc2)CC1,96.8%
4,O=C(CN1C(=O)S/C(=C\c2cc3c(cc2[N+](=O)[O-])OCO3)C1=O)Nc1ccccc1F,102%
5,CCC(CC)c1nc(Nc2cccc(C(C)=O)c2)c2ccccc2n1,92.7%
6,COc1c(C)cnc(CSc2nc3ccccc3c(=O)[nH]2)c1C,100%
7,COc1ccc(C(=O)Nc2cc(C)ccc2C)cc1OC,96.7%
8,COc1ccc(S(=O)(=O)NCCc2c(C)[nH]c3ccc(C)cc23)c2ccccc12,70.1%
9,CCCOc1cccc(C2C3=C(CC(C)(C)CC3=O)Nc3ccccc3N2C(C)=O)c1 (centres undefined),100%
10,Cc1cc2c(C(C)C)c(O)c(O)c(C=NCC34CC5CC(CC(C5)C3)C4)c2c(O)c1-c1c(C)cc2c(C(C)C)c(O)c(O)c(C=NCC34CC5CC(CC(C5)C3)C4)c2c1O,104%
11,COc1ccc(C2CC(=O)C3=C(C2)Nc2ccccc2NC3c2ccncc2)cc1 (centres undefined),104%
12,Cc1cc(/C=N/NC(=O)c2ccc(CN3CCc4ccccc4C3)cc2)c(C)n1-c1ccccc1F,87.7%
13,O=C(CCNc1n[nH]c(=O)[nH]c1=O)N/N=C/c1c[nH]c2ccccc12,100%
14,CCOc1ccc2oc(=O)cc(CN3CCN(Cc4ccc(OC)cc4)CC3)c2c1,101%
15,CCOc1cc(C2Nc3ccccc3NC3=C2C(=O)CC(c2ccc(OC)c(OC)c2)C3)cc(Br)c1OC (centres undefined),109%
16,NC(=O)CC(NSc1ccccc1[N+](=O)[O-])C(=O)O (centres undefined),99.9%
17,COc1cc2c(cc1OC)C(c1cccc(I)c1)NCC2 (centres undefined),78.3%
18,COc1cc(C(=O)Nc2ccc3c(c2)CCCN3C(=O)C(C)(C)C)cc(OC)c1OC,95.1%
19,O=C(OCC1CCCN2CCCCC12)c1cccc(Br)c1 (centres undefined),102%
20,COc1ncnc2nc[nH]c12,100%
21,Cc1ccc2c(CN3CCN(CC#N)CC3)cc(=O)oc2c1,99.4%
22,Cc1c(CCC(=O)NCc2ccccc2)c(=O)oc2cc(O)ccc12,102%
23,COc1c(C)c2c(c(OC)c1OC)COC2=O,102%
24,COc1cc2c(cc1OC)C(=O)N(Cc1ccccc1)C(=O)C2=O,110%
25,COCCOC(=O)c1c(C)n(-c2ccc(C)c(Cl)c2)c2c1cc(O)c1ccccc12,106%
26,COc1cc2c(cc1OC)C(c1ccccc1[N+](=O)[O-])OCC2 (centres undefined),92.3%

row,Compound,cell viability
1,CSc1ccc(C(c2c(O)c3cccc(-c4ccccc4)c3[nH]c2=O)c2c(O)c3ccccc3n(-c3ccccc3)c2=O)cc1 (centres undefined),99.8%
2,O=C(O)c1ccccc1C(=O)Nc1ccccc1,106%
3,CCN(CC)C(=O)c1cc(NC(=O)c2cc(OC)c(OC)c(OC)c2)c(OC)c(OC)c1,103%
4,Cc1[nH]c2ccccc2c1CCNC(=O)c1cc2ccccc2oc1=O,100%
5,Cc1[nH]c2ccccc2c1CCNC(=O)c1ccc(=O)[nH]c1,96.3%
6,COC(=O)c1cc(OC)c(OC)c(OC)c1NC(=O)C(=O)c1c(-c2ccccc2)[nH]c2ccccc12,102%
7,CCCCOc1ccccc1NC(=O)c1cc(OC)c(OC)c(OC)c1,80.8%
8,COc1cc(OC)cc(C(=O)NC(CC(=O)O)c2cccc([N+](=O)[O-])c2)c1 (centres undefined),99.8%
9,COc1ccc(C(=O)c2sc3nc(C)cc(C)c3c2N)cc1OC,104%
10,Cc1ccc(OCC(=O)NC(Cc2ccccc2)C(=O)O)cc1 (centres undefined),92.6%
11,COc1cc(C2C(C(=O)OC(C)C)=C(C)NC3=C2C(=O)CC(C)(C)C3)cc(Br)c1O (centres undefined),101%
12,O=C(O)Cc1c[nH]c2ccc(O)cc12,97.1%
13,NC(=O)c1cc(O)c(O)c(O)c1,108%
14,CCCCSc1ccc(NCCC(=O)c2ccc3c(c2)OCO3)cc1,89.7%
15,Cn1nnnc1SCC1=C(C(=O)O)N2C(=O)C(NC(=O)C(O)c3ccccc3)C2SC1 (centres undefined),114%
16,COc1cc(C(=O)Oc2ccc(C(C)(C)C)cc2Br)cc(OC)c1OC,89.6%
17,NC(C(=O)O)C(O)c1ccccc1 (centres undefined),107%
18,Cn1c(SCC(=O)Nc2ccc(Cl)cc2)nc2c(=O)[nH]cnc21,104%
19,COc1cc(C2CC(=O)NC(C)=C2C(=O)OC(C)C)c(Br)c(OC)c1OC (centres undefined),93.7%
20,Cc1c(C(=O)CSc2nc3ccccc3c(=O)[nH]2)c2ccccc2n1C,103%
21,CCCCCOC(=O)C1=C(C)NC2=C(C(=O)CCC2)C1c1cc(Br)c(O)c(OC)c1 (centres undefined),87%
22,CCN(CC)C(=O)c1cc(=O)n(CC(=O)Nc2ccc(Br)cc2)c2ccccc12,103%
23,Cc1cc(=O)oc2cc(OC(=O)c3ccc(C(C)(C)C)cc3)ccc12,87.6%
24,COc1ccc(C(=O)CCNc2ccc(N3CCOCC3)c(Cl)c2)cc1OC,101%
25,COC(=O)C(CCCCCCC(C)C)NC(=O)c1ccccc1 (centres undefined),81.7%
26,CCc1ccc(NC(=O)c2cc3cc(Cl)ccc3oc2=N)cc1,103%

# Some of these compounds in order of count of non-hydrogen atoms, smallest number first.
row,Compound,cell viability
16,COc1cc(C(=O)Oc2ccc(C(C)(C)C)cc2Br)cc(OC)c1OC,89.6%
19,COc1cc(C2CC(=O)NC(C)=C2C(=O)OC(C)C)c(Br)c(OC)c1OC (centres undefined),93.7%
3,CCN(CC)C(=O)c1cc(NC(=O)c2cc(OC)c(OC)c(OC)c2)c(OC)c(OC)c1,103%

# Structural class, the entries above containing a cyano group
row,Compound,cell viability
6,COc1cc(/C=C(/C#N)c2nc3ccccc3s2)cc(OC)c1O,92.5%
12,N#CC1=C(N)Oc2c(oc(CO)cc2=O)C1c1ccc2ccccc2c1 (centres undefined),99.5%
21,Cc1ccc2c(CN3CCN(CC#N)CC3)cc(=O)oc2c1,99.4%
